In PMC12040169 (PLOS Biology, 2025):
Some of the results follow.

test system: T1, CTL2-GFP (C. trachomatis L2/434/Bu, GFP-expressing); set-up: species or system HeLa; Intracellular C. trachomatis growth in HeLa cells, bulk GFP fluorescence relative to DMSO; conditions: bulk GFP, single well; 28.5 h, 10 µM; inhibitor
T1 construct: L2/434/Bu, GFP-expressing

Row | Compound | % of control remaining
1 | COc1ccc(Br)cc1CNCCCN1CCOCC1 [CBK278208C] | 147.49%
2 | Cc1cc(C)n(CCCn2cncc2-c2cnn(C)c2)n1 [CBK281771] | 117.517%
3 | Cc1ccc(S(=O)(=O)NCCCC(=O)Oc2cc3oc(=O)c4c(c3cc2Cl)CCC4)cc1 [CBK264967] | 100%
4 | O=S(=O)(c1ccc(Cl)c(S(=O)(=O)N2CCOCC2)c1)c1ccc(Cl)c(S(=O)(=O)N2CCOCC2)c1 [CBK261369] | 87.8115%
5 | Cc1nn(C)c2c1c(=O)n(C)c(=O)n2C [CBK026140] | 105.611%
6 | Cc1nnc(SCc2nnnn2-c2ccccc2)nc1O [CBK266302] | 149.871%
7 | COc1cc(C(=O)N2CCCC3(CC(=O)c4ccc(C)cc4O3)C2)cc(OC)c1C (stereo not drawn) [CBK168239] | 79.465%
8 | COc1ccc(C2NCCc3c2[nH]c2ccccc32)cc1CSc1nc2ccccc2s1 (stereo not drawn) [CBK264303C] | 100.77%
9 | Cc1cc(C)c(S(=O)(=O)Nc2nnc(C)s2)c(C)c1 [CBK045497] | 93.4392%
10 | CO/N=C(\C(=O)O)c1cn2cccnc2n1 [CBK262252] | 129.539%
11 | Clc1ccccc1-c1nccnc1OCCOc1ccccc1 [CBK107011] | 108.16%
12 | Cc1cc(OC(=O)C2CCC(CNC(=O)OC(C)(C)C)CC2)c2c3c(c(=O)oc2c1)CCC3 (stereo not drawn) [CBK083583] | 114.076%
13 | COc1cccc(C(O)CN2CCC3(CC2)CC(O)c2cc(C)ccc2O3)c1 (stereo not drawn) [CBK286338] | 119.335%
14 | Cc1ccc(-c2nnc(CN3C(=O)C4(CC(=O)N(C)C4=O)c4cc(F)ccc43)o2)cc1 (stereo not drawn) [CBK075453] | 144.044%
15 | Cc1ccccc1OCCn1c(CCCO)nc2ccccc21 [CBK266182] | 123.403%
16 | CCCCN1C(=S)SC(C)(C)C1N(O)C(=O)C1CCCCC1 (stereo not drawn) [CBK008915] | 117.247%
17 | OCCN1CCN(CCCc2ccccc2)CC1 [CBK261872] | 118.808%
18 | CC(N)(Cc1ccc(Oc2ncc(C(F)(F)F)cc2Cl)cc1)C(=O)O (stereo not drawn) [CBK161647] | 112.342%
19 | O=[N+]([O-])c1ccc(Oc2cccc(Cl)c2Cl)c(C(F)(F)F)c1 [CBK002594] | 90.0209%
20 | CCc1ccc(S(=O)(=O)Nc2cccnc2)cc1 [CBK287782] | 95.4337%
21 | CNC(=O)C1(Cc2ccc(-c3ccccc3)cc2)CCN(C(=O)Cc2ccccc2F)CC1 [CBK285768] | 137.912%
22 | CC1=NN(C(=O)c2ccc(Cl)cc2)C(C)(C)C1 [CBK058904] | 117%
23 | NC(=O)CSc1nnc(COc2ccc(Br)cc2)n1-c1ccccc1 [CBK267277] | 136.155%
24 | CN(C)Cc1ccc(C(=O)N2CCCC2(C)C(=O)N(C)C)cc1 (stereo not drawn) [CBK281955] | 116.906%
25 | O=C(NC(Cc1ccsc1)c1cccnc1)C1CCOCC1 (stereo not drawn) [CBK285110] | 126.36%
26 | CCc1nc2c(OCc3ccc(Cl)cc3)cccn2c1N(C=O)CC(=O)N(C)C [CBK147518] | 100%

Row | Compound | % of control remaining
27 | Cc1ccc(C(=O)Nc2ccc(C)nc2C)cn1 [CBK200289] | 120.843%
28 | c1ccc(Oc2cccc(OCCCN3CCCCC3)c2)cc1 [CBK261781] | 20.4013%
29 | COc1ccc([C@@]23CC[C@H](NC(=O)Nc4cccc(C(F)(F)F)c4F)C[C@@H]2CN(C)C3)cc1OC [CBK063200A] | 100%
30 | CCCN(CC1CCCO1)C(=O)c1cnn(-c2ccc(F)cc2)c1 (stereo not drawn) [CBK283317] | 107.398%
31 | COc1cccc(C(=O)NC(c2ccc(OC)c(OC)c2)c2cc(Cl)c3cccnc3c2O)c1 (stereo not drawn) [CBK264048] | 115.593%
32 | Cc1cc(O)ccc1Nc1cc(-c2cc3ccccc3s2)ncn1 [CBK091057] | 97.6362%
33 | O=C(NCCNc1cnccn1)c1cccc(Cl)c1Cl [CBK305727] | 101.829%
34 | c1ccc2c(c1)CCCN2Cc1ncc[nH]1 [CBK138332] | 153.038%
35 | COc1c(C)cccc1C(=O)N1CCC(c2cc3cnccc3[nH]2)CC1 [CBK283460] | 135.228%
36 | COC(=O)c1ccccc1NC(=O)CNC(=O)c1ccccc1Cl [CBK269113] | 144.568%
37 | COc1cc(-c2ccc(NCCn3cc[nH]c3=O)nc2)cc(OC)c1OC [CBK036907] | 166.57%
38 | CN(C)c1cccc(NC(=O)Nc2ncc(Br)c3cccnc23)c1 [CBK107633] | 119.538%
39 | Brc1ccsc1-c1csc(-c2ccccc2)n1 [CBK019859] | 138.755%
40 | CCOC(=O)C1=C(N)OC2=C(C(=O)CC(C)(C)C2)C1c1cc(OCC)ccc1OCC (stereo not drawn) [CBK008699] | 141.669%
41 | Cc1ccc2nc(SCCC(=O)O)cc(C)c2c1 [CBK286861] | 115.863%
42 | O=C(c1cccs1)N1CCC(n2cnc3cccnc32)CC1 [CBK283938] | 117.972%
43 | CC(NC1=NC(C)(C)Cc2ccccc21)C(=O)O (stereo not drawn) [CBK262575] | 119.191%
44 | Cc1ccc(S(=O)(=O)c2cc3c(=O)n4ccccc4nc3n(CCCN3CCOCC3)c2=N)cc1 [CBK265590] | 111.266%
45 | COc1cc(Nc2nc(-c3cccc(NC(C)=O)c3)cn3ccnc23)cc(OC)c1OC [CBK038093] | 148.51%
46 | CCC1(CC)Cc2ccccc2-c2nc(NN)n(Cc3ccccc3)c(=O)c21 [CBK263217] | 105.425%
47 | CC(C(=O)Nc1ccc(S(N)(=O)=O)cc1)N1Cc2ccccc2C1=O (stereo not drawn) [CBK307607] | 127.381%
48 | Cc1ccc(-c2nc(Nc3ccc(F)cc3)sc2CC(=O)O)cc1 [CBK264286] | 100%
49 | CCN1CCN(Cc2c(C(C)C)[nH]c3ncccc23)CC1 [CBK285343] | 137.516%
50 | CC(C)Cc1cnc2c(c1SCc1ccc(F)cc1)c(=O)n(C)c(=O)n2C [CBK294409] | 142.096%
51 | O=C(NC1CCN(C(=O)Cn2ccc3ccncc32)CC1)C1CC1 [CBK284731] | 78.1109%

Taken from the entries so far (14 entries):
Row | Compound | % of control remaining
16 | CCCCN1C(=S)SC(C)(C)C1N(O)C(=O)C1CCCCC1 (stereo not drawn) [CBK008915] | 117.247%
17 | OCCN1CCN(CCCc2ccccc2)CC1 [CBK261872] | 118.808%
18 | CC(N)(Cc1ccc(Oc2ncc(C(F)(F)F)cc2Cl)cc1)C(=O)O (stereo not drawn) [CBK161647] | 112.342%
19 | O=[N+]([O-])c1ccc(Oc2cccc(Cl)c2Cl)c(C(F)(F)F)c1 [CBK002594] | 90.0209%
20 | CCc1ccc(S(=O)(=O)Nc2cccnc2)cc1 [CBK287782] | 95.4337%
21 | CNC(=O)C1(Cc2ccc(-c3ccccc3)cc2)CCN(C(=O)Cc2ccccc2F)CC1 [CBK285768] | 137.912%
22 | CC1=NN(C(=O)c2ccc(Cl)cc2)C(C)(C)C1 [CBK058904] | 117%
23 | NC(=O)CSc1nnc(COc2ccc(Br)cc2)n1-c1ccccc1 [CBK267277] | 136.155%
24 | CN(C)Cc1ccc(C(=O)N2CCCC2(C)C(=O)N(C)C)cc1 (stereo not drawn) [CBK281955] | 116.906%
25 | O=C(NC(Cc1ccsc1)c1cccnc1)C1CCOCC1 (stereo not drawn) [CBK285110] | 126.36%
26 | CCc1nc2c(OCc3ccc(Cl)cc3)cccn2c1N(C=O)CC(=O)N(C)C [CBK147518] | 100%
27 | Cc1ccc(C(=O)Nc2ccc(C)nc2C)cn1 [CBK200289] | 120.843%
28 | c1ccc(Oc2cccc(OCCCN3CCCCC3)c2)cc1 [CBK261781] | 20.4013%
29 | COc1ccc([C@@]23CC[C@H](NC(=O)Nc4cccc(C(F)(F)F)c4F)C[C@@H]2CN(C)C3)cc1OC [CBK063200A] | 100%
